The target in assay [1] is export receptor CRM1 (mouse (endogenous in AML12)) (UniProt Q6P5F9). Briefly: proximity ligation; Duolink PLA on endogenous proteins in AML12 cells treated with 100 μM HDCA or DMSO for 24 h.
Assay [2] shares this target. The assay is described as follows: co-IP; endogenous proteins of AML12 cells; CRM1 antibody on magnetic beads, protein extracts at 4 °C overnight, Western blot; cells with or without 100 μM HDCA. Background: In western blotting, separated proteins are transferred to a membrane and probed.
Assay [3] addresses GFP-CRM1 (UniProt O14980). The assay is described as follows: co-IP; Flag-GFP-RAN (wild type or G5A/P49A/V51A), HA-GFP-PPARα and GFP-CRM1 overexpressed in HEK293T cells; antibody (Flag, HA) on magnetic beads, protein extracts at 4 °C overnight, Western blot; with or without 100 μM HDCA; which antibody precipitated which pair is not told.

Sequences of proteins named here, by UniProt entry; tags and fusion partners are left off.
UniProt Q6P5F9: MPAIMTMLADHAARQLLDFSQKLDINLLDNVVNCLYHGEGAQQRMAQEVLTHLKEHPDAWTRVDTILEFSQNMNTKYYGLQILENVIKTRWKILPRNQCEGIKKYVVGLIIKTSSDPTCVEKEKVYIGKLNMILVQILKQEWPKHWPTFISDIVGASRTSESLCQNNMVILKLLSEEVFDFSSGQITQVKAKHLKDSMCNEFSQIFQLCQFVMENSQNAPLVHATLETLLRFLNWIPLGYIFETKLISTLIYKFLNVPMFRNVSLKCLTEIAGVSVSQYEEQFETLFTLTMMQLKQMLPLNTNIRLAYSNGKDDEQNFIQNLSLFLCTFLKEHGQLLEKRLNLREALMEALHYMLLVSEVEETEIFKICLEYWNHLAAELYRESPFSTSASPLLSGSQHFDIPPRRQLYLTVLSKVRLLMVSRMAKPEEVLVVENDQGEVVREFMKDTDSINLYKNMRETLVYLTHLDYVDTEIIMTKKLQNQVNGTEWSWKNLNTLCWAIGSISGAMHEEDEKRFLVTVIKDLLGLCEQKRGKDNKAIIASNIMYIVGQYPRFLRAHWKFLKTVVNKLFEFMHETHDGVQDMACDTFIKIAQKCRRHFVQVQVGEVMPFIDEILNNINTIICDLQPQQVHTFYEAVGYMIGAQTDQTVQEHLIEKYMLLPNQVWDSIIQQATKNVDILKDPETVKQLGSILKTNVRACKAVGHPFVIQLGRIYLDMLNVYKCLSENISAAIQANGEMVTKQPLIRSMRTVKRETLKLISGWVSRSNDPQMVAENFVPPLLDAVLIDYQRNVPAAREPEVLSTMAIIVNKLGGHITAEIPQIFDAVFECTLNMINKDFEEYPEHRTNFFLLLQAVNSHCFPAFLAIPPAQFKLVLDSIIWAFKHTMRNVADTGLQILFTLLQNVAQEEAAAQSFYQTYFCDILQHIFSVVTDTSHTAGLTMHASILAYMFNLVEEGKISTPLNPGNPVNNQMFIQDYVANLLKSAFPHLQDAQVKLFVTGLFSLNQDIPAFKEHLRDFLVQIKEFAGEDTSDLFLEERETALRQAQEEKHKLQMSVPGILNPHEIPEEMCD
UniProt O14980: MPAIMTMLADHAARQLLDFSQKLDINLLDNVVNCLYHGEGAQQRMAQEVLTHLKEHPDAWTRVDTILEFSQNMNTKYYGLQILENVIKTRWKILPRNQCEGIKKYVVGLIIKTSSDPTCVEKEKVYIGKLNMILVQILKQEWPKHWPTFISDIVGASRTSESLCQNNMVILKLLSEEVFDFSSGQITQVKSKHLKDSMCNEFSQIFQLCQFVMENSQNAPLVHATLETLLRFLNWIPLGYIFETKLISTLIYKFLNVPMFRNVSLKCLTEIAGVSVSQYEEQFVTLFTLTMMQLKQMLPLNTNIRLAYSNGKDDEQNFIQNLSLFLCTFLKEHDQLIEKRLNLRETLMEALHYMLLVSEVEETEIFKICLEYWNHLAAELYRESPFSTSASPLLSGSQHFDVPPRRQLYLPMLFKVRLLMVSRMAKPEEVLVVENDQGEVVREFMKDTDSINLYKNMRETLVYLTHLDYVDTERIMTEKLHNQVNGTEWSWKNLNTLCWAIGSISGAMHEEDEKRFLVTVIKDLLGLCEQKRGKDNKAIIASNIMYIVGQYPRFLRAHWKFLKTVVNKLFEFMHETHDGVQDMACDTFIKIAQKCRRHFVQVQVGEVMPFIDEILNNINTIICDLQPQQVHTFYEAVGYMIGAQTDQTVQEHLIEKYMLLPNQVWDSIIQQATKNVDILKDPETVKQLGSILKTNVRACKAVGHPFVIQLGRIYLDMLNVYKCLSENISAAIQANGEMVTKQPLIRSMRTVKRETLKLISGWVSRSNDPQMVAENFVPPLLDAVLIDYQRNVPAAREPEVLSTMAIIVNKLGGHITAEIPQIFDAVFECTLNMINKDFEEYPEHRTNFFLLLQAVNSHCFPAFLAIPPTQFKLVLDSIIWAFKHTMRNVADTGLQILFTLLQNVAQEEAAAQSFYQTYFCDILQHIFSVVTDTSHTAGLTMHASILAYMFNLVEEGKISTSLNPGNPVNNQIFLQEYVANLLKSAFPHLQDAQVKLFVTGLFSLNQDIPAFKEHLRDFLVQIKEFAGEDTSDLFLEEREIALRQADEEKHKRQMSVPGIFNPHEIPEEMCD

No constants are given. Whether binding was seen depends on the method and setting. In cells and extracts the contact can be indirect. Some entries that bind do so weakly or less than the wild type. For part of these data: Where a sequence is shown, tags or fusion partners need not be part of it.

B1: peroxisome proliferator-activated receptor α (protein, UniProt P23204 1-468)
chain: MVDTESPICPLSPLEADDLESPLSEEFLQEMGNIQEISQSIGEESSGSFGFADYQYLGSCPGSEGSVITDTLSPASSPSSVSCPVIPASTDESPGSALNIECRICGDKASGYHYGVHACEGCKGFFRRTIRLKLVYDKCDRSCKIQKKNRNKCQYCRFHKCLSVGMSHNAIRFGRMPRSEKAKLKAEILTCEHDLKDSETADLKSLGKRIHEAYLKNFNMNKVKARVILAGKTSNNPPFVIHDMETLCMAEKTLVAKMVANGVEDKEAEVRFFHCCQCMSVETVTELTEFAKAIPGFANLDLNDQVTLLKYGVYEAIFTMLSSLMNKDGMLIAYGNGFITREFLKNLRKPFCDIMEPKFDFAMKFNALELDDSDISLFVAAIICCGDRPGLLNIGYIEKLQEGIVHVLKLHLQSNHPDDTFLFPKLLQKMVDLRQLVTEHAQLVQVIKKTESDAALHPLLQEIYRDMY
For the molecule B1, the binding entry in assay [1] and in assay [2] was “binds” each time.

B2: HA-GFP-PPARα (protein, UniProt Q07869 1-468)
chain: MVDTESPLCPLSPLEAGDLESPLSEEFLQEMGNIQEISQSIGEDSSGSFGFTEYQYLGSCPGSDGSVITDTLSPASSPSSVTYPVVPGSVDESPSGALNIECRICGDKASGYHYGVHACEGCKGFFRRTIRLKLVYDKCDRSCKIQKKNRNKCQYCRFHKCLSVGMSHNAIRFGRMPRSEKAKLKAEILTCEHDIEDSETADLKSLAKRIYEAYLKNFNMNKVKARVILSGKASNNPPFVIHDMETLCMAEKTLVAKLVANGIQNKEAEVRIFHCCQCTSVETVTELTEFAKAIPGFANLDLNDQVTLLKYGVYEAIFAMLSSVMNKDGMLVAYGNGFITREFLKSLRKPFCDIMEPKFDFAMKFNALELDDSDISLFVAAIICCGDRPGLLNVGHIEKMQEGIVHVLRLHLQSNHPDDIFLFPKLLQKMADLRQLVTEHAQLVQIIKKTESDAALHPLLQEIYRDMY
B2: the binding entry in assay [3] is “binds”.

The values above are taken from paper PMC10482907.
